According to PubChem BioAssay AID662 (National Center for Advancing Translational Sciences (NCATS), 2007):
The other results are listed elsewhere or left out. Shown are side measurements of this screen, not its main read-out; they come without a call. Most of these compounds were active or inconclusive in the main read-out, so they are no random draw. Words in brackets tell the shape of the fitted curve; partial curves, single points and poor fits give uncertain potencies.

Assay: Cell signaling CRE-BLA (Fsk stim)
Conditions: CHO CRE-bla reporter (cAMP response element driving beta-lactamase), forskolin EC10, beta-lactamase ratio; measured here: 460 nm blue channel
In short: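 CHO CRE-bla cells, overnight plating in Opti-MEM with 0.5% dialyzed FBS; cpd titration + EC10 NKH 477, 3 h 37 °C; CCF4 2 h RT; ex 405/em 460 vs 530 ratio → %Activity, AC50.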
With `O=C(c1ccc(=O)n(Cc2ccccc2)n1)N1CCN(C/C=C/c2ccccc2)CC1` the AC50 was 1.26 µM [rising, partial curve]. For `COc1ccc(-c2[nH]ncc2-c2ccc3c(c2)OCCO3)c(O)c1`, the AC50 was 0.316 µM [falling, full curve]. With `O=c1c(-c2cccs2)nc2cnc(Oc3ccccc3)nc2n1Cc1cccs1` the AC50 was 1.26 µM [rising, partial curve]. For `O=C(c1nc2n(n1)C(c1ccc(Cl)cc1)C=C(c1ccccc1)N2)N1CCOCC1` (configuration not stated), the AC50 was 15.8 µM [rising, single point]. With `COc1ccc(CCNC(=O)c2cc3ccccn3n2)c(OC)c1OC` the AC50 was 10 µM [rising, single point]. For `Cc1nc(N2CCOCC2)c2nc(-c3ccccc3)n(CCCN3CCOCC3)c2n1`, the AC50 was 10 µM [rising, partial curve]. For `CN1CCN(c2ncc3nc(-c4cc(F)cc(F)c4)c(=O)n(Cc4cccs4)c3n2)CC1`, the AC50 was 2 µM [rising, full curve]. For `COc1ccc(C(=O)COC(=O)CN2CC(=O)Oc3ccccc32)cc1Br`, the AC50 was 2.51 µM [falling, full curve]. In the case of `CN(C)c1cccc(C(=O)Nc2cccc(F)c2)c1`, the AC50 is reported as 0.00398 µM [falling, full curve, poor fit]. With `CC1CCN(S(=O)(=O)c2ccc3c(c2)oc(=O)n3CC(=O)N2c3ccccc3CC2C)CC1` (configuration not stated) the AC50 was 7.94 µM [falling, partial curve]. For `O=C(c1cnc(N2CCN(c3ncccn3)CC2)c2ccccc12)N1CCN(c2ccccn2)CC1`, the AC50 was 5.01 µM [rising, single point]. In the case of `COC(=O)c1ccc(Nc2cc(C)nc3ncnn23)cc1`, the AC50 is reported as 25.1 µM [rising, single point]. In the case of `CCn1cc(C(=O)NCc2ccccn2)c(=O)c2cc(S(=O)(=O)N3CCCCC3)ccc21`, the AC50 is reported as 20 µM [rising, single point]. For `CC(NC(=O)c1ccccc1Cl)C(=O)O` (configuration not stated), the AC50 was 0.631 µM [falling, full curve, poor fit]. In the case of `Cc1cc(C)n2c(Br)c(CSc3nc4ccccc4o3)nc2n1`, the AC50 is reported as 3.98 µM [rising, partial curve]. With `C/C=C/CSc1nc2c(c(=O)[nH]c(=O)n2C)n1C(C)C` the AC50 was 5.01 µM [rising, partial curve]. For `COc1ccc2c(c1)C(C)=CC(C)(C)N2C(=O)C(C)N1C(=O)c2ccccc2C1=O` (configuration not stated), the AC50 was 10 µM [rising, partial curve]. For `Cc1cccc(S(=O)(=O)c2c(N)n(/N=C/c3cccnc3)c3nc4ccccc4nc23)c1`, the AC50 was 5.01 µM [rising, partial curve]. In the case of `CCOc1ccc(N(CC(=O)Nc2cccc(Cl)c2)S(=O)(=O)c2c(C)noc2C)cc1`, the AC50 is reported as 12.6 µM [falling, single point]. With `CC(=O)Nc1nc(-c2ccc(Cl)cc2)nc(C)c1C(C)=O` the AC50 was 2 µM [rising, single point]. With `COc1ccc2cc3cc(C(=O)NCC4CCCO4)oc3nc2c1` (configuration not stated) the AC50 was 7.94 µM [rising, partial curve, poor fit]. For `COCCn1c(=O)c(-c2ccc(OC)cc2)nc2cnc(N3CCN(C)CC3)nc21`, the AC50 was 10 µM [rising, partial curve]. With `Cc1cccn2c(=O)c3cc(C(=O)NCC4CCCO4)c(=N)n(Cc4cccnc4)c3nc12` (configuration not stated) the AC50 was 2.51 µM [rising, full curve]. For `CCOC(=O)C1=C(C)N(C2CCCCC2)C(=O)C1`, the AC50 was 1 µM [falling, partial curve, poor fit]. For `O=C(Oc1ccc2ccccc2c1Cl)N1CCCC1`, the AC50 was 20 µM [rising, single point]. In the case of `Cc1cc(C)n2c(SCC(=O)N(C)C3CCS(=O)(=O)C3)nnc2n1` (configuration not stated), the AC50 is reported as 5.01 µM [falling, single point]. In the case of `CCOC(=O)c1c(O)c2c(n(Cc3ccco3)c1=O)CCCC2`, the AC50 is reported as 3.16 µM [falling, full curve]. With `Cc1ccc2c(C(=O)CN3CCCC3)c(C)[nH]c2c1` the AC50 was 2 µM [falling, full curve, poor fit]. With `CCOc1ccc(-c2nc(S(=O)(=O)c3ccccc3)c(NCc3cccnc3)o2)cc1` the AC50 was 25.1 µM [rising, single point]. For `Cc1cc2c(=O)n(NC(N)=O)c(C)nc2s1`, the AC50 was 0.501 µM [falling, partial curve]. In the case of `COc1ccc(N(Cc2cc3cc(OC)ccc3[nH]c2=O)C(=O)C2CCCO2)cc1` (configuration not stated), the AC50 is reported as 2 µM [rising, full curve, poor fit]. In the case of `COc1cc(C(=O)N2CCN(c3ccc(C)cc3C)CC2)cc(OC)c1OC`, the AC50 is reported as 10 µM [rising, partial curve]. In the case of `Cc1cccc(CNc2cc(-c3ccccc3Cl)ncn2)c1`, the AC50 is reported as 6.31 µM [rising, partial curve]. In the case of `COc1ccc(CCN2CC(C#N)=C3c4cc(OC)c(OC)cc4CCN3C2)cc1OC`, the AC50 is reported as 1.26 µM [rising, partial curve]. With `CCOC(=O)c1c(C)[nH]c(C(=O)CN2C(=O)NC(CC)(c3ccccc3)C2=O)c1C` (configuration not stated) the AC50 was 20 µM [rising, single point]. In the case of `CN1CCN(c2ncc3nc(-c4cn(C)c5ccccc45)c(=O)n(-c4ccccc4)c3n2)CC1`, the AC50 is reported as 12.6 µM [rising, partial curve]. For `CCOCCn1c(CN2CCC(C)CC2)nc2c1c(=O)n(C)c(=O)n2C`, the AC50 was 15.8 µM [rising, single point]. For `COc1ccccc1N1CCN(C(=O)c2sc3nc(-c4ccc(F)cc4)cn3c2C)CC1`, the AC50 was 6.31 µM [falling, partial curve, poor fit]. With `CN(C(=O)CN1CCC(NC(=O)C2CCCCC2)CC1)C1CCCCC1` the AC50 was 3.16 µM [falling, partial curve]. With `CCc1ccc2[nH]cc(C(=O)OCCOC)c(=O)c2c1` the AC50 was 0.00316 µM [falling, full curve, poor fit]. In the case of `Nc1nnc(COc2ccc(Br)cc2Br)s1`, the AC50 is reported as 0.0158 µM [falling, full curve]. With `Cc1csc2nc3ccccc3c(=O)n12` the AC50 was 10 µM [rising, partial curve].
